Test: general procedure: Fmoc solid-phase peptide synthesis; Wang resin; HBTU/HOBt/DIEA; DCC/DMAP for the C-terminal amino acid
Conditions: conjugation step

Substance | conjugation yield (TFA salt) | conjugation yield
(2-(2,5-Bis((3S,4S)-3,4-bis(((1S,2R)-2-phenyl-cyclopropyl)carbamoyl)pyrrolidine-1-carbonyl)-phenoxy)acetyl)glycyl-L-seryl-L-lysyl-L-lysine | 74% | –
(2-(2,5-Bis((3S,4S)-3,4-bis(((1S,2R)-2-phenyl-cyclopropyl)carbamoyl)pyrrolidine-1-carbonyl)-phenoxy)acetyl)glycyl-L-seryl-L-lysyl-L-lysyl-L-lysine | 74% | –
(2-(2,5-Bis((3S,4S)-3,4-bis(((1S,2R)-2-phenyl-cyclopropyl)carbamoyl)pyrrolidine-1-carbonyl)-phenoxy)acetyl)glycyl-L-seryl-L-lysyl-L-lysyl-L-lysyl-L-lysine | 30% | –
(2-(2,5-Bis((3S,4S)-3,4-bis(((1S,2R)-2-phenyl-cyclopropyl)carbamoyl)pyrrolidine-1-carbonyl)-phenoxy)acetyl)glycyl-L-seryl-L-seryl-L-seryl-L-seryl-L-serine | – | 12%
(2-(2,5-Bis((3S,4S)-3,4-bis(((1S,2R)-2-phenylcyclopropyl)carbamoyl)pyrrolidine-1-carbonyl)-phenoxy)acetyl)glycyl-L-lysyl-L-lysyl-L-lysyl-L-lysyl-L-lysine | 54% | –
(2-(2,5-Bis((3S,4S)-3,4-bis(((1S,2R)-2-phenylcyclopropyl)carbamoyl)pyrrolidine-1-carbonyl)phenoxy)acetyl)glycyl-L-seryl-L-lysyl-L-lysyl-L-lysyl-L-lysyl-L-lysine | 73% | –
